Measurements from PubChem BioAssay AID493014 (National Center for Advancing Translational Sciences (NCATS), 2011).
Some of the results follow. The main result of the screen is listed elsewhere. These columns were measured beside it and carry no call. Most of these compounds were active or inconclusive in the main read-out, so they are no random draw. Words in brackets tell the shape of the fitted curve; partial curves, single points and poor fits give uncertain potencies.

Assay: qHTS Assay to Find Inhibitors of Chronic Active B-Cell Receptor Signaling
Details: ABC-DLBCL IkBa-CBG/CBR reporter, luminescence ratio (green luciferase fused to IkBa over red control in TMD8 lymphoma cells), 4 h
Procedure, shortened: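 TMD8 ABC-DLBCL cells carrying doxycycline-inducible green luciferase fused to IkappaBalpha plus unfused red luciferase were exposed to compounds (up to 46 uM) for 4 hrs at 37C. Activity came from the overlap-corrected green/red luminescence ratio.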

[1] = measured here: CBR red luminescence, cell number
[2] = measured here: IkBa-CBG green luminescence

| SMILES | AC50 [1] | AC50 [2] |
| --- | --- | --- |
| O=C(Nc1ccc(Cl)cc1)Nc1ccccc1Sc1ncc([N+](=O)[O-])s1 | 6.31 µM [falling, partial curve] | – |
| CCCC(=O)N1N=C(c2ccccc2)CC1c1cn(C)c2ccccc12 (configuration not stated) | 23.1 µM [falling, single point] | – |
| CCOC(=O)CC1C(C(=O)OCC)ON2OC(C(=O)OC)C(C(=O)OCC)C12 (configuration not stated) | 0.092 µM [rising, full curve, poor fit] | – |
| O=C(CSc1nnnn1C1CCCCC1)Nc1ccc2c(c1)OCO2 | 6.51 µM [falling, single point] | – |
| CCOc1ccc(NC(=O)CC2C(=O)N(c3ccccc3)C(=O)N2CCc2cccs2)cc1 (configuration not stated) | 0.58 µM [rising, full curve, poor fit] | – |
| COc1ccc(OCC(=O)NNC(=O)C2CCN(c3ncnc4sc(C)c(C)c34)CC2)cc1 | 4.61 µM [falling, single point] | – |
| c1ccc(CNc2nc3ccccc3n3cnnc23)cc1 | 6.51 µM [rising, full curve, poor fit] | – |
| Cc1cccc(NC(=O)c2ccccc2O)c1C | 35.5 µM [falling, single point] | – |
| CCN(CC)CCn1c(=O)n(-c2ccc(Cl)cc2)c(=O)c2c3c(sc21)CN(C)CC3 | 0.891 µM [rising, full curve] | – |
| Clc1ccc(/C=N/N2CCCCC2)cc1 | 12.6 µM [rising, partial curve, poor fit] | – |
| Cn1c(N)c(C(=O)CSc2nnc(C3CC3)n2-c2ccccc2)c(=O)n(C)c1=O | 1.46 µM [falling, full curve] | – |
| CCC(OC(=O)C(C)N1C(=O)C(=O)c2ccccc21)C(=O)Nc1ccccc1OC (configuration not stated) | 4.47 µM [rising, partial curve, poor fit] | – |
| O=C(Nc1ccc(Cl)cc1)Nc1nnc(Cc2ccc([N+](=O)[O-])cc2)s1 | 29.1 µM [rising, single point] | – |
| COc1cc2c(cc1OC)[C@@H](NC(=O)COc1ccccc1)[C@H](OCc1ccccc1)C2 | 10.3 µM [rising, partial curve, poor fit] | 0.517 µM [falling, partial curve, poor fit] |
| Cc1nc2ccc(NC(=O)c3cnc(Cl)c(Cl)c3)cc2s1 | 7.94 µM [falling, partial curve, poor fit] | – |
| Cc1ccc(C(=O)OCC(=O)N2CCCCCC2)c(O)c1 | 1.46 µM [rising, full curve] | – |
| O=C(c1ccc(-c2ccccc2Cl)o1)N1CCCC(C(F)(F)F)C1 (configuration not stated) | 32.6 µM [falling, single point] | – |
| Cn1c(=N)n(CC(=O)C(C)(C)C)c2ccccc21 | 13 µM [rising, partial curve, poor fit] | – |
| Cn1cccc1C(C#N)c1ncc(C(F)(F)F)cc1Cl (configuration not stated) | 14.1 µM [falling, partial curve, poor fit] | – |
| Cc1[nH]c2ccccc2c1C(=O)C(=O)NCCOc1ccccc1 | 15.8 µM [rising, single point] | – |
| O=C(NCc1ccccc1)c1ccc(-c2ccccc2F)o1 | 14.6 µM [rising, single point] | – |

| SMILES | AC50 [1] | AC50 [2] |
| --- | --- | --- |
| COc1ccc(Cl)cc1NC(=O)NN1CCN(C)CC1 | 35.5 µM [falling, single point] | – |
| Cn1c(=O)c([N+](=O)[O-])c(Cl)c2ccccc21 | 5.62 µM [rising, single point] | 5.62 µM [falling, single point] |
| CNC(=O)/C(C#N)=C/c1ccc(OCCOc2ccccc2)cc1 | 12.6 µM [rising, partial curve, poor fit] | – |
| COc1ccccc1NC(=O)CN1CCN(CC(=O)Nc2ccc(F)cc2F)CC1 | 20 µM [falling, partial curve, poor fit] | – |
| COc1cc(C2CC(=O)N3CN(Cc4ccco4)CSC3=C2C#N)ccc1OCc1ccccc1 (configuration not stated) | 17.8 µM [falling, single point] | – |
| Cc1ccc(N2CC(C(=O)Nc3nc4ccc(S(C)(=O)=O)cc4s3)CC2=O)cc1 (configuration not stated) | 7.08 µM [falling, full curve, poor fit] | – |
| COc1cccc(C(=O)NCC2(c3ccccc3)CCCC2)c1 | 35.5 µM [falling, single point] | – |
| CCN(Cc1ccccc1)Cc1ccc(OCc2ccccc2)cc1 | 17.8 µM [rising, partial curve, poor fit] | – |
| CCn1ccnc1CN(C)Cc1nc(-c2ccc3c(c2)OCO3)no1 | 3.98 µM [rising, full curve] | – |
| O=C1C(c2ccccc2)=[N+]([O-])c2ccccc21 | – | 18.4 µM [falling, single point] |
| COc1cccc(C2=NOC(C(=O)NCc3ccc(F)cc3)C2)c1 (configuration not stated) | 11.2 µM [rising, partial curve] | 12.6 µM [falling, single point] |
| O=C(c1c(F)cccc1F)N1CCC(O)(c2cccnc2)CC1 | 0.731 µM [rising, partial curve, poor fit] | – |
| O=C(c1c(F)cccc1F)N1CCN(c2ncc(Br)cn2)CC1 | 11.2 µM [rising, partial curve, poor fit] | – |
| CC1=NN(c2ccc(Cl)c(C(=O)O)c2)C(=O)/C1=C\c1ccc(-c2ccc(C(=O)O)cc2)o1 | 6.31 µM [falling, full curve, poor fit] | – |
| Cc1ccc(-c2noc(-c3ccoc3C)n2)cc1 | 0.501 µM [falling, partial curve, poor fit] | – |
| N#C/C(=C/c1ccccc1[N+](=O)[O-])C(=O)NCc1ccco1 | 20.6 µM [falling, partial curve, poor fit] | – |
| CC(C)Nc1nc(Cl)nc(Nc2ccccc2)n1 | 3.98 µM [falling, partial curve, poor fit] | – |
| COc1cccc(/C=N\NC(=O)c2sc(N)nc2C)c1OC | 8.2 µM [falling, partial curve, poor fit] | – |
| O=C(NNC(=O)c1ccc(Oc2ccc(C3SCCS3)cc2)o1)c1ccc(Cl)cc1 | 6.31 µM [falling, full curve] | – |
| Cc1ccc2nc(C)/c(=N\O)c(C)nc2c1 | 0.398 µM [rising, full curve, poor fit] | – |
| Clc1ccc(OCCSc2ncccn2)c2ccccc12 | 2 µM [rising, full curve, poor fit] | – |

Copied from the list:
For AC50 [1], CC(C)Nc1nc(Cl)nc(Nc2ccccc2)n1 shows 3.98 µM [falling, partial curve, poor fit]
For AC50 [1], COc1cccc(C2=NOC(C(=O)NCc3ccc(F)cc3)C2)c1 (configuration not stated) shows 11.2 µM [rising, partial curve]
For AC50 [2], O=C1C(c2ccccc2)=[N+]([O-])c2ccccc21 shows 18.4 µM [falling, single point]

Remaining list, next part:

| SMILES | AC50 [1] | AC50 [2] |
| --- | --- | --- |
| COC(=O)c1ccccc1NC(=O)/C=C/c1ccco1 | 9.2 µM [falling, partial curve] | – |
| Cc1cc(NC(=O)CCC(=O)N(c2ccccc2)C(C(=O)NC2CCCC2)c2ccccc2C)no1 (configuration not stated) | 35.5 µM [rising, single point] | – |
| CC(c1ccco1)N(C(=O)Nc1ccc(Cl)cc1)c1ccccn1 (configuration not stated) | 3.16 µM [rising, partial curve, poor fit] | – |
| Cc1ccc(C)c(S(=O)(=O)N2CCC(c3nc4c(nnn4Cc4ccc(F)cc4)c(=O)[nH]3)CC2)c1 | 35.5 µM [falling, single point] | – |
| C[n+]1ccccc1/C=C/c1cc(Br)ccc1O | 5.62 µM [rising, full curve, poor fit] | – |
| CN(C)S(=O)(=O)c1cccc(NC(=O)c2ccc(Sc3nncn3C)c([N+](=O)[O-])c2)c1 | 10 µM [rising, partial curve] | – |
| Cc1sc2nc(C3CC3)nc(SCC(=O)N3CCc4ccccc4C3)c2c1C | 23.1 µM [falling, single point] | – |
| CCOC(=O)N1CCN(C(=O)c2ccc(Cn3c(=S)[nH]c4cc5c(cc4c3=O)OCO5)cc2)CC1 | 0.146 µM [falling, full curve] | – |
| O=C(Nc1ccc(F)c([N+](=O)[O-])c1)c1ccc2c(c1)OCCO2 | 5.01 µM [rising, single point] | – |
| CC(C)(C)OC(=O)CN1C(=O)NC(Cc2c[nH]c3ccccc23)C1=O (configuration not stated) | 11.2 µM [rising, single point] | – |
| Cc1ccc(OCC(=O)Nc2cccc(-c3nnc(-c4ccccc4)o3)c2)cc1 | 2.31 µM [rising, full curve] | – |
| Cc1cc(N2CCN(C)CC2)nc2ccc(NC(=S)N3CCN(c4ccc(Cl)cc4)CC3)cc12 | 12.6 µM [falling, single point] | – |
| Cc1cccn2cc(COc3cccc([N+](=O)[O-])c3)nc12 | 5.01 µM [rising, full curve, poor fit] | – |
| C=CCN(c1ccc(C(=O)Nc2ccc3c(c2)n(C)c(=O)n3C)cc1)S(C)(=O)=O | 11.2 µM [rising, partial curve] | 35.5 µM [falling, single point] |
| CCOC(=O)C(=CNc1ccc(NC2=NCC(C)(C)S2)cc1)C(=O)OCC | 5.62 µM [falling, full curve, poor fit] | – |
| COc1cccc(/C=N/Nc2nc(Nc3ccccc3)nc(-n3nc(C)cc3C)n2)c1O | 8.2 µM [falling, partial curve, poor fit] | 2.06 µM [falling, partial curve, poor fit] |
| Cc1ccc(/C(N)=N/OC(=O)Cc2ccccc2)cc1 | 1.3 µM [rising, partial curve] | – |
| NC1=C(c2ccc(F)cc2)C(=O)CS1 | 2 µM [falling, partial curve, poor fit] | – |
| COC(=O)C(NC(C)=O)(Nc1nc(C)cs1)C(F)(F)F (configuration not stated) | 5.17 µM [rising, single point] | – |
| CC1CCc2sc(C(=O)NN=C3CCC(c4ccccc4)CC3)cc2C1 (configuration not stated) | 20.6 µM [falling, single point] | – |
